Test results reported in article PMC10164956.

Chains of the proteins cited; added tags and fusions are not shown.
UniProt O35730: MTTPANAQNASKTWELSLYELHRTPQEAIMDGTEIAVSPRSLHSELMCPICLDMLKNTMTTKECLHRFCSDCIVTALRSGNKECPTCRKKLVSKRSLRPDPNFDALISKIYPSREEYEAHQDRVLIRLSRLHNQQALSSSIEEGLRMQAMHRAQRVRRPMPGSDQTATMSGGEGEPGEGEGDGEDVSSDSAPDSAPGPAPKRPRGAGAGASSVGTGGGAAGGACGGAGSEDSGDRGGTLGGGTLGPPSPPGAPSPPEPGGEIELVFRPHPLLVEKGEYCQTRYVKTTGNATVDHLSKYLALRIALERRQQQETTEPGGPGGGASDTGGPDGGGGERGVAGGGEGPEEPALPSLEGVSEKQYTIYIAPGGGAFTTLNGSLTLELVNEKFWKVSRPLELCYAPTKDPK
UniProt Q8BX22: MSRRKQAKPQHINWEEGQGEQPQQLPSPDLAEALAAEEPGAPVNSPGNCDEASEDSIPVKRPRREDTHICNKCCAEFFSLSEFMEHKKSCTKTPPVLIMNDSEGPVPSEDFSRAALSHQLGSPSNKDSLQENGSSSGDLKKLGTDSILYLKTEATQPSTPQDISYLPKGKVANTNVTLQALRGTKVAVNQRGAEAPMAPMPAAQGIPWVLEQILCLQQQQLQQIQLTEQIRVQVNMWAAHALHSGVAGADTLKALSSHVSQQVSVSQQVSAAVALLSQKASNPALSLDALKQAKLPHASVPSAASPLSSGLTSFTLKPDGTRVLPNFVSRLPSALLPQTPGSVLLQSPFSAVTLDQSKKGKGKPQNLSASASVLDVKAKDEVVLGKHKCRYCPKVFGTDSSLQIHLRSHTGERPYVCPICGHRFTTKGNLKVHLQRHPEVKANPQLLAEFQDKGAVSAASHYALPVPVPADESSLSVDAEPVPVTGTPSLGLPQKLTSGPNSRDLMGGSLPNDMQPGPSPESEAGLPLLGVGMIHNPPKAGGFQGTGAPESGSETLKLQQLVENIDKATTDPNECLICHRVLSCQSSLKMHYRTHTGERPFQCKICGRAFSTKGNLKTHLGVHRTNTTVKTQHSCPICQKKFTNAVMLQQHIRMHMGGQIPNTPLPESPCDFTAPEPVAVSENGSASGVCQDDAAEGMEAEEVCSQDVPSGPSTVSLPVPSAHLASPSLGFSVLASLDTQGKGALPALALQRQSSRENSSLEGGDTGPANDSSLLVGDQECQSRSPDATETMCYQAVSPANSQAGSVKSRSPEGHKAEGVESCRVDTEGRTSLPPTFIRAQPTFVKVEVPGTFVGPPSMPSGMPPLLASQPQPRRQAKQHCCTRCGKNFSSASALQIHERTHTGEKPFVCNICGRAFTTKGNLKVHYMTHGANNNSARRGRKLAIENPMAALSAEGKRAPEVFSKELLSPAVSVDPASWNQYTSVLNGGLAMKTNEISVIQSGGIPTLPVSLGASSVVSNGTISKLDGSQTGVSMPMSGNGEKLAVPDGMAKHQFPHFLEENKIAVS

Legend:
Experiment in all cases: affinity purification with mass spectrometry; anti-BMI1 antibody against IgG control on lysate of mouse undifferentiated spermatogonia; SDS-PAGE, silver staining, in-gel trypsin digestion, LC-ESI-Q-TOF; fold-change ≥2 and at least two identified peptides
[1] = biological target: T1, B cell-specific Moloney murine leukemia virus integration site 1 (BMI1) (mouse (endogenous in undifferentiated spermatogonia)) (UniProt P25916)
T1 sequence: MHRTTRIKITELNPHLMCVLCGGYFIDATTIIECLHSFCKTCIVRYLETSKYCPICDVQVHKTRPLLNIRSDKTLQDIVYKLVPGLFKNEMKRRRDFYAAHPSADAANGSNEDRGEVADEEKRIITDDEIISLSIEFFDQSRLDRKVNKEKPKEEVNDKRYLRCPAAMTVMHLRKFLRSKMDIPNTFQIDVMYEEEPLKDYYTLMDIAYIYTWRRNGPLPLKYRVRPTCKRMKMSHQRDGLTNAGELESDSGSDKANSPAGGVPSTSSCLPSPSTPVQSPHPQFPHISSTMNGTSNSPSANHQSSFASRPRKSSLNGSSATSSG

[2] = substrate: T2, B cell-specific Moloney murine leukemia virus integration site 1 (BMI1) (mouse (endogenous in undifferentiated spermatogonia)) (UniProt P25916); remark: listed apart in the source
T2 sequence: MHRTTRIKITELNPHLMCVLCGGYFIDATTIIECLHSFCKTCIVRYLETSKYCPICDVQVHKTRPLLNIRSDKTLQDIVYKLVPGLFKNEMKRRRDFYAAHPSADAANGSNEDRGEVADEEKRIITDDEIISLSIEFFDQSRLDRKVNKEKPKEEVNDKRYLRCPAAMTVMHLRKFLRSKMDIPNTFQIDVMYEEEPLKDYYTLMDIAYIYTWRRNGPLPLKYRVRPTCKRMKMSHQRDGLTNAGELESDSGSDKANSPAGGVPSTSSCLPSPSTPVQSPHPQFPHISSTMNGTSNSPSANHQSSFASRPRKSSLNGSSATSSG

[3] = biological target: T3, B cell-specific Moloney murine leukemia virus integration site 1 (BMI1) (mouse (endogenous in undifferentiated spermatogonia)), P25916; conditions: remark: other sources report otherwise
T3 chain: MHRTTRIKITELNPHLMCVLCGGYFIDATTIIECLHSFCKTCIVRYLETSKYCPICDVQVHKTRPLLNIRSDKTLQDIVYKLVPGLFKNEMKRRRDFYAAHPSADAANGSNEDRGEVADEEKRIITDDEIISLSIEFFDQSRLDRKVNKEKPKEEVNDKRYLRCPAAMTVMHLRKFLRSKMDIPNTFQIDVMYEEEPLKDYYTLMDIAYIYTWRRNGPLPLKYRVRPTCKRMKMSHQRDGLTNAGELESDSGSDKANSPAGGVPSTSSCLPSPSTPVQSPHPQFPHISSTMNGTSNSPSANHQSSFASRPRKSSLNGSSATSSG

RING1A (from UniProt O35730 1-406)
binding [1]: binds

Sal-like 4 (SALL4) (from UniProt Q8BX22 1-1067)
binding [1]: binds

B1: PHC1 (protein, UniProt Q64028 1-1010)
chain: METESEQNSSSTNGSSSSGASSRPQIAQMSLYERQAVQALQALQRQPNAAQYFHQFMLQQQLSNAQLHSLAAVQQATIAASRQASSPNSSTAQQQTATTQASMNLATTSAAQLISRSQSVSSPSATTLTQSVLLGNTTSPPLNQSQAQMYLRPQLGNLLQVNRTLGRNVPLASQLILMPNGAVAAVQQEVPPAQSPGVHADADQVQNLAVRNQQASAQGPQMPGSTQKAIPPGASPVSGLSQTSSQALAVAQASSGASGQSLNLSQAGGGSGNSLPGSMGPGGGGQAPGGLGQLPSSGLTGGSCPRKGTGVVQPLPAAQTVTVSQGSQTEAESAAAKKAEADGSGQQSVGMNLTRTATPAPSQTLISSATYTQIQPHSLIQQQQQIHLQQKQVVIQQQIAIHHQQQFQHRQSQLLHTATHLQLAQQQQQQQQQQQQQQQQQQQQQQGTTLTAPQPPQVPPTQQVPPSQSQQQAQTLVVQPMLQSSPLTLPPEPTSKPPIPIQSKPPVAPIKPPQLGAAKMSATQQPPPHIPVQVVGTRQPGSAQAQALGLAQLAAAVPTPRGITGAVQPGQAHLASSPPSSQAAPGALQECPPALAAGMTLAPVQGTAHVVKGGPTASSPVVAQVPAAFYMQSVHLPGKAQTLAVKRKAESEEERDDLSALASVLPTKASPAAESPKVIEEKNSLGEKAEPVASLNANPPNSDLVALAPTPSAPPPTLALVSRQMGDSKPPQAIVKPQILTHIIEGFVIQEGAEPFPVGCSQFLKETKKPLQAGLPTGLNESQPSGPLGGDSPSVELEKKANLLKCEYCGKYAPAEQFRGSKRFCSMTCAKRYNVSCSHQFRLKRKKMKEFQEASYARVRRRGPRRSSSDIARAKIQGKRHRGQEDSSRGSDNSSYDEALSPTSPGPLSVRAGHGERDLGNTITTPSTPELQGINPVFLSSNPSQWSVEEVYEFIASLQGCQEIAEEFRSQEIDGQALLLLKEEHLMSAMNIKLGPALKICAKINVLKET
binding [2]: binds

B2: RYBP, Q8CCI5 1-228 (protein)
chain: MTMGDKKSPTRPKRQAKPAADEGFWDCSVCTFRNSAEAFKCSICDVRKGTSTRKPRINSQLVAQQVAQQYATPPPPKKEKKEKVEKPDKEKPEKDKDISPSVTKKNTNKKTKPKSDILKDPPSEANSIQSANATTKTSETNHTSRPRLKNVDRSTAQQLAVTVGNVTVIITDFKEKTRSSSTSSSTVTSSAGSEQQNQSSSGSESTDKGSSRSSTPKGDMSAVNDESF
binding [3]: no binding

B3: YAF2 (protein, UniProt Q99LW6 1-179)
chain: MGDKKSPTRPKRQPKPASDEGYWDCSVCTFRNSAEAFKCMMCDVRKGTSTRKPRPVSQLVAQQVTQQFVPPTQSKKEKKDRVEKDKSEKEAASKKNCHKKTRPRLKNVDRSSAQHLEVTVGDLTVIITDFKEKAKSAPASSAAGDQHSQGSCSSDSTERGVSRSSSPRGEASSLNGESH
binding [2]: no binding

Where two headings read alike, the source gives them in different places. Results are given in words; binding and its absence hold for the method and conditions named. Binding seen in cells or lysates may run through a third protein. A yes stands for co-enrichment or nearness to the bait. Other partners may have been found. For some assays here: A no says only that the protein was not detected with the bait.
